Test results published in US20080311122A1, “Antagonists of Hmgb1 and/or Rage and Methods of Use Thereof” (Medimmune, LLC, priority 2005, published 2008).
Results are given in words; binding and its absence hold for the method and conditions named. Some results given as binding are weak or reduced against the parent protein; the word gives no strength.

By UniProt entry, the sequences of proteins in these tests, tags left out. Residues count along the entry.
UniProt P40673, residues 2-209: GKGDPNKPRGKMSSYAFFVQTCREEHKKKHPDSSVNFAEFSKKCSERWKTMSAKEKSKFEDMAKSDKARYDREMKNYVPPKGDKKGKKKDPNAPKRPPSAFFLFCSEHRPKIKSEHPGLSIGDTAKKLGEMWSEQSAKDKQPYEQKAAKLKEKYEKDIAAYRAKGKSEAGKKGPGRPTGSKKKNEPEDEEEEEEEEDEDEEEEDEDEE
UniProt P09429: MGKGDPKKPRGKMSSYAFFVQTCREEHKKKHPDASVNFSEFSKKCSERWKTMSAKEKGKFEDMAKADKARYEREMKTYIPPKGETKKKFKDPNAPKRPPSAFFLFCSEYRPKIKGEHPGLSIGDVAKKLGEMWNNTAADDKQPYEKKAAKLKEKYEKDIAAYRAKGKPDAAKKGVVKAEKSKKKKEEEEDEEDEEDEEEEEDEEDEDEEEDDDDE

Key:
[1] = target: recombinant HMG1 purified from E. coli as a calmodulin binding protein (CBP) fusion protein (human); test: ELISA, immobilized against soluble rHMG1
[2] = target: recombinant HMG1 purified from E. coli as a calmodulin binding protein (CBP) fusion protein (human); test: direct ELISA, wells coated with rHMG1 at 5 ug/ml, anti-human IgG-HRP, OD 450
HMG2 [3] = target: HMG2 (UniProt P40673); test: ELISA on coated HMGB2, antibody 10 ug/mL
HMGB1 peptide 179-186 = target: T1, HMGB1 peptide 179-186 (UniProt P09429); test: ELISA, biotinylated peptides on avidin plate
T1 sequence (peptide, biotinylated, looked up): EKSKKKKE

[4] = target: T2, HMGB1 B-box peptide 91-108 (human); test: ELISA, biotinylated peptides on avidin plate
T2 sequence (peptide, biotinylated): DPNAPKRPPSAFFLFCSE

[5] = target: recombinant HMG1 purified from E. coli as a calmodulin binding protein (CBP) fusion protein (human); test: sandwich ELISA
[6] = target: T2, HMGB1 B-box peptide 91-108 (human); test: ELISA on biotinylated HMGB1 peptides captured on NeutrAvidin, antibody in serial dilution from 10 ug/ml, anti-human IgG-HRP, OD 450
HMG2 [7] = target: HMG2 (UniProt P40673); test: ELISA, wells coated with HMGB2 at 5 ug/mL, antibody at 10 ug/mL, anti-human kappa/lambda-HRP, OD 490
[8] = target: recombinant HMG1 purified from E. coli as a calmodulin binding protein (CBP) fusion protein (human); test: sandwich ELISA: antibody captured on anti-human IgG Fc, rHMG1 2 ug/ml in solution, mouse anti-HMGB1 and anti-mouse IgG-HRP, OD 450
HMG2 [9] = target: HMG2 (UniProt P40673); test: ELISA on coated HMGB2
[10] = target: recombinant HMG1 purified from E. coli as a calmodulin binding protein (CBP) fusion protein (human); test: HMG1 capture ELISA
[11] = target: recombinant HMG1 purified from E. coli as a calmodulin binding protein (CBP) fusion protein (human); test: ELISA format 'Soluble HMG1/Captured Antibody' (squares): antibody captured on anti-human IgG Fc, HMG1 in solution
[12] = target: recombinant HMG1 purified from E. coli as a calmodulin binding protein (CBP) fusion protein (human); test: ELISA format 'Captured HMG1/Soluble Antibody' (triangles): wells coated with HMG1
[13] = target: HMGB1 in human sepsis sera (human) (UniProt P09429); test: immunoprecipitation and Western blot
[14] = target: recombinant HMG1 purified from E. coli as a calmodulin binding protein (CBP) fusion protein (human); test: ELISA, immobilized antibody against immobilized HMG1 format
[15] = target: recombinant HMG1 purified from E. coli as a calmodulin binding protein (CBP) fusion protein (human); test: sandwich ELISA: antibody (10 ug/ml) captured on anti-human Fc, sample added, mouse anti-HMGB1 and anti-mouse-HRP, OD 450

Measured: binding

B1: anti-HMG1 antibody G16 (antibody, V domains shown)
VH: EVQLLESGGGLVQPGGSLRLSCAASGFTFSWYKMTWVRQAPGKGLEWVSSISPSGGFTSYADSVKGRFTISRDNSKNTLYLQMNSLRAEDTAVYYCARDLDIRHAFDIWGQGTMVTVSS
VL: DIQMTQSPGTLSLSPGESGTLSCRASESVSSRHFAWYQQKPGQAPRLLIYGASSRPTGIPDRFSGSGSGTDFTLTLSRLEPEDFAVYFCQYYGSSPYTFGGGTKVEMK
binds: [1] | [2]

B2: anti-HMG1 antibody S16 (antibody, V domains shown)
VH: EVQLLESGGGLVQPGGSLRLSCAASGFTFSWYSMLWVRQAPGKGLEWVSYISPSGGFTNYADSVKGRFTISRDNSKNTLYLQMNSLRAEDTAVYYCARWDYNSGWYYDHWGQGTLVTVSS
VL: DIQMTQSPDTLSLSPGERATLSCRASQSVNSRNLAWYQQKPGQAPRLLIYGASTRATGIPDRFSGSVSGTEFTLTISSLQPDDFATYYCQQYNSYFTFGQGTKLEIK
not listed: [11] | [12] | [13] | [14] | [15]
binds: all other assays above

B3: anti-HMG1 antibody G4 (antibody, V domains shown)
VH: EVQLLESGGGLVQPGGSLRLSCAASGFTFSWYDMTWVRQAPGKGLEWVSSISPSGGYTKYADSVKGRFTISRDNSKNTLYLQMNSLRAEDTAVYYCTTEFYDYLDVWGKGTTVTVSS
VL: DIQMTQSPGTLSLSPGEGATLSCRASQSVSSTYLAWYQQKPGQAPRLLIYEASKRATGTPARFSGSGSGTDFTLSISSLEPEDFAVYYCQHRHNWPPQWTFGQGTKVEVK
not listed: [1] | HMG2 [3] | HMGB1 peptide 179-186 | [5] | HMG2 [7] | HMG2 [9]
binds: all other assays above

B4: anti-HMG1 antibody S10 (antibody, V domains shown)
VH: EVQLLESGGGLVQPGGSLRLSCAASGFTFSWYDMWWVRQAPGKGLEWVSWIVPSGGITAYADSVKGRFTISRDNSKNTLYLQMNSLRAEDTATYYCARGNYGPSPFDYWGQGTLVTVSS
VL: DIQMTQSPGTLSLSPGERATLSCRATQSVRKNFLAWYQQKPGQAPRLLIYDASSRATGIPDRFSGSGSGTDFTLTISRLEPEDFAVYYCQQYGNSPIIFGQGTRLEIK
binds: [1] | [5] | [2] | [8] | [10]

B5: anti-HMG1 antibody S12 (antibody, V domains shown)
VH: EVQLLESGGGLVQPGGSLRLSCAASGFTFSKYIMHWVRQAPGKGLEWVSGIVPSGGLTEYADSVKGRFTISRDNSKNTLYLQMNSLRAEDTATYYCAKEIFGQFDYWGQGTLVTVSS
VL: AQSALTQPPSVSAAPRQRVTISCSGSTSNIGNNAVTWYQYFPGKAPKLLIYSDNQRPSGVPDRFSGSKSGTSASLAITGLQAEDEADYYCQSYDRGLSVVFGGGTKLTVL
binds: [1] | HMG2 [3] | HMG2 [7] | [2] | HMG2 [9]

B6: anti-HMG1 antibody E11 (antibody, V domains shown)
VH: EVQLLESGGGLVQPGGSLRLSCAASGFTFSRYQMNWVRQAPGKGLEWVSSISPSGGHTHYADSVKGRFTISRDNSKNTLYLQMNSLRAEDTAVYYCAKDGRQGKISTVDHWGQGTLVTVSS
VL: DIQMTQSPGTLSLSPGERATLSCRASQSVRSNFLAWYQQKPGQAPRLLIYGASRRASGIPDRFSGSGFGADFTLSISRLEPEDFAVYYCQQYGSSPNTFGQGSRVEIK
binds: [11] | [1] | HMG2 [3] | HMG2 [7] | [14] | HMG2 [9]

B7: anti-HMG1 antibody G9 (antibody, V domains shown)
VH: EVQLLESGGGLVQPGGSLRLSCAASGFTFSSYDMFWVRQAPGKGLEWVSRISPSGGYTYYADSVKGRFTISRDNSKNTLYLQMNSLRAEDTAVYYCARLRYFDSRGYAFDIWGQGTMVTVSS
VL: DIQMTQSPGTLSLSPGERATLSCRASQSVRSSYLAWYQQKPGQAPRLLIYGASTRATGIPDRFSGSGSGTDFTLTISRLEPEDFAVYYCQQYGTSRWTFGQGTKVEIK
binds: [11] | [12] | [14] | [2]

B8: anti-HMG1 antibody G12 (antibody, V domains shown)
VH: EVQLLESGGGLVQPGGSLRLSCAASGFTFSYYMMTWVRQAPGKGLEWVSSISPSGGYTIYADSAKGRFTISRDNSKNTLYLQMNSLRAEDTAVYYCARALSTGSFWDYWGQGTLVTVSS
VL: DIQMTQSPGTLSLSPGERATLSCRASESLTSTYVAWYQHKPGQAPRLLIHGGSTRATGIPVRFSGSGSGTDFTLTIATLEPEDFAVYYCQQYGSSPYTFGQGTKLEIK
binds: [11] | [12] | [14]

B9: anti-HMG1 antibody G34 (antibody, V domains shown)
VH: EVQLLESGGGLVQPGGSLRLSCAASGFTFSHYMMGWVRQAPGKGLEWVSRISPSGGGTVYADSVKGRFTISRDNSKNTLYLQMNSLRAEDTAVYYCARGGNWNYISYYYYYLDVWGKGTTVTVSS
VL: DIQMTQSPSSLSASVGDRVAITCRASQSIDTYLNWYQQKPGKAPKLLIYAASKLEDGVPSRFSGSGTGTDFTLTIRSLQPEDFASYFCQQSYSSPGITFGPGTKVEIK
binds: [1]
